Results deposited as PubChem BioAssay AID504793 (Drosophila RNAi Screening Center, 2011).
In all, the deposit lists about 23,000 reagents; below is a random part of those with a known target gene and a result. In the full data, 62 (0.27%) got an active call. 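Calls come from follow-up tests whose scores are not deposited, so confirmed genes may have low counts here; counts are not normalised per plate.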 Raw values vary from plate to plate and are shown uncorrected. A plus sign joins genes that one reagent is predicted to hit. Reagent sequences are not shown.

Purpose: 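Whole-genome screen for parts of the DNA damage checkpoint at G2/M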 (primary screen)
Cell system: Drosophila S2R+ cells
Knock-down reagent: long dsRNA against Drosophila genes, about 0.25 µg dsRNA per well
Time to read-out: 4 days of dsRNA, then 4 hours of drug before read-out
Conditions: doxorubicin 0.5 µM for 4 hours to cause double-strand breaks, in cells also given a low, harmless dose of dsRNA against nbs to sensitise the assay
Measurement: 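Per-well count of mitotic cells stained for phospho-histone H3 after doxorubicin exposure, used as mitotic index; counts are raw and not normalised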
Scale: mitotic cells: higher = more cells in mitosis, weaker G2 arrest
Active means: 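a call needs confirmation in secondary tests, with other dsRNAs and a check of mitotic timing without damage, not just a high primary count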
Meaning of the calls: active = confirmed in follow-up tests; inactive = not confirmed

| gene knocked down | amplicon | mitotic cells, replicate 1 | mitotic cells, replicate 2 | call |
| --- | --- | --- | --- | --- |
| sals | DRSC14925 | 6 | – | inactive |
| sals | DRSC16113 | 1 | – | inactive |
| sals | DRSC28473 | 8 | – | inactive |
| CG40439 | DRSC22707 | 11 | – | inactive |
| CG40439 | DRSC26673 | 6 | – | inactive |
| CG12645 | DRSC17851 | 13 | – | inactive |
| CG12645 | DRSC24406 | 2 | – | inactive |
| RpL22 | DRSC18707 | 14 | – | inactive |
| RpL22 | DRSC22819 | 16 | – | inactive |
| Su(P) | DRSC11291 | 3 | – | inactive |
| Su(P) | DRSC29947 | 8 | – | inactive |
| CG15025 | DRSC15031 | 7 | – | inactive |
| CG32214 | DRSC09613 | 9 | – | inactive |
| Eip63E | DRSC08658 | 5 | – | inactive |
| Ir76b | DRSC10831 | 9 | – | inactive |
| CG2116 | DRSC18206 | 4 | – | inactive |
| CG2116 | DRSC24617 | 2 | – | inactive |
| Cyp9c1 | DRSC04607 | 7 | – | inactive |
| Cdc27 | DRSC11112 | 298 | – | inactive |
| Cdc27 | DRSC23438 | 164 | – | inactive |
| Sec22 | DRSC18538 | 4 | – | inactive |
| Sec22 | DRSC29297 | 4 | – | inactive |
| dia | DRSC03519 | 11 | – | inactive |
| dia | DRSC24127 | 4 | – | inactive |
| CG2736 | DRSC04314 | 7 | – | inactive |
| g | DRSC20335 | 10 | – | inactive |
| g | DRSC26118 | 7 | – | inactive |
| Phlpp | DRSC02065 | 6 | – | inactive |
| Phlpp | DRSC22808 | 6 | – | inactive |
| CCT8 | DRSC07130 | 191 | – | inactive |
| CCT8 | DRSC27213 | 110 | – | inactive |
| CG31805 | DRSC01563 | 8 | – | inactive |
| Ugt302K1 | DRSC16086 | 7 | – | inactive |
| CG30375 | DRSC06834 | 7 | – | inactive |
| Ag5r | DRSC19327 | 8 | – | inactive |
| Ag5r | DRSC29999 | 3 | – | inactive |
| CG31819 | DRSC01532 | 3 | – | inactive |
| CG31819 | DRSC27735 | 3 | – | inactive |
| Cyp6a2 | DRSC05014 | 7 | – | inactive |
| Cyp6a2 | DRSC24091 | 2 | – | inactive |
| ppan | DRSC17030 | 4 | – | inactive |
| ppan | DRSC28476 | 4 | – | inactive |
| MYPT-75D | DRSC10743 | 3 | – | inactive |
| CG6805 | DRSC07011 | 4 | – | inactive |
| CG6805 | DRSC29352 | 6 | – | inactive |
| Eig71Ej | DRSC11157 | 5 | – | inactive |
| Eig71Ej | DRSC28224 | 6 | – | inactive |
| zetaTry | DRSC07720 | 4 | – | inactive |
| bnb | DRSC20314 | 5 | – | inactive |
| bnb | DRSC27623 | 6 | – | inactive |
| AlkB | DRSC19115 | 29 | – | inactive |
| Rab3GAP1 | DRSC00291 | 3 | – | inactive |
| Rab3GAP1 | DRSC00703 | 8 | – | inactive |
| Rab3GAP1 | DRSC28988 | 8 | – | inactive |
| Gpb5 | DRSC21241 | 12 | – | inactive |
| Scox | DRSC03117 | 8 | – | inactive |
| Scox | DRSC26366 | 3 | – | inactive |
| Nelf-E | DRSC10567 | 5 | – | inactive |
| CG7148 | DRSC11802 | 4 | – | inactive |
| CG15020 | DRSC08474 | 5 | – | inactive |
| CG1138 | DRSC12530 | 3 | – | inactive |
| CG16800 | DRSC02518 | 2 | – | inactive |
| CG16800 | DRSC28237 | 10 | – | inactive |
| CG13982 | DRSC02314 | 10 | – | inactive |
| CG13193 | DRSC06318 | 3 | – | inactive |
| flw | DRSC17992 | 8 | – | inactive |
| flw | DRSC18774 | 22 | – | inactive |
| flw | DRSC25161 | 9 | – | inactive |
| CG12206 | DRSC24963 | 11 | – | inactive |
| Gr98a | DRSC14719 | 6 | – | inactive |
| CG9175 | DRSC03153 | 5 | – | inactive |
| Cyp305a1 | DRSC11126 | 8 | – | inactive |
| Nfs1 | DRSC02154 | 2 | – | inactive |
| Sgt1 | DRSC16519 | 7 | – | inactive |
| Sgt1 | DRSC29773 | 11 | – | inactive |
| Gr64a | DRSC21713 | 12 | – | inactive |
| Pxd | DRSC16805 | 9 | – | inactive |
| CR33315 | DRSC22947 | 12 | – | inactive |
| CR33315 | DRSC27669 | 3 | – | inactive |
| woc | DRSC15928 | 7 | – | inactive |
| Gale | DRSC08234 | 6 | – | inactive |
| CG33981 + fab1 | DRSC07412 | 10 | – | inactive |
| CG33981 + fab1 | DRSC28045 | 5 | – | inactive |
| dpr17 | DRSC12885 | 12 | – | inactive |
| dpr17 | DRSC14958 | 7 | – | inactive |
| Nct | DRSC16172 | 9 | – | inactive |
| CG16978 | DRSC02553 | 10 | – | inactive |
| Ir52a | DRSC06262 | 3 | – | inactive |
| nsr | DRSC04427 | 7 | – | inactive |
| nsr | DRSC22806 | 12 | – | inactive |
| Nadk1a | DRSC05431 | 17 | – | inactive |
| Nadk1a | DRSC06963 | 5 | – | inactive |
| Ndg | DRSC06223 | 8 | – | inactive |
| Ndg | DRSC28402 | 8 | – | inactive |
| CG3491 | DRSC01934 | 2 | – | inactive |
| stac | DRSC13693 | 2 | – | inactive |
| stac | DRSC14392 | 6 | – | inactive |
| stac | DRSC22197 | 7 | – | inactive |
| lost | DRSC12002 | 13 | – | inactive |
| lost | DRSC12234 | 5 | – | inactive |
| lost | DRSC21987 | 13 | – | inactive |
| Jhbp13 | DRSC02913 | 2 | – | inactive |
| CG42336 | DRSC05273 | 25 | – | inactive |
| CG42336 | DRSC06332 | 9 | – | inactive |
| CG42336 | DRSC06333 | 10 | – | inactive |
| CG42336 | DRSC28729 | 8 | – | inactive |
| CG42336 | DRSC29534 | 6 | – | inactive |
| nebu | DRSC09807 | 2 | – | inactive |
| nebu | DRSC09808 | 5 | – | inactive |
| Neto | DRSC18982 | 11 | 10 | inactive |
| Neto | DRSC19503 | 10 | – | inactive |
| Neto | DRSC19716 | 22 | – | inactive |
| Neto | DRSC19717 | 11 | – | inactive |

In a second layout: 18 of the entries above.
gene knocked down | amplicon | mitotic cells, replicate 1 | mitotic cells, replicate 2 | call
Gr64a | DRSC21713 | 12 | – | inactive
Pxd | DRSC16805 | 9 | – | inactive
CR33315 | DRSC22947 | 12 | – | inactive
CR33315 | DRSC27669 | 3 | – | inactive
woc | DRSC15928 | 7 | – | inactive
Gale | DRSC08234 | 6 | – | inactive
CG33981 + fab1 | DRSC07412 | 10 | – | inactive
CG33981 + fab1 | DRSC28045 | 5 | – | inactive
dpr17 | DRSC12885 | 12 | – | inactive
dpr17 | DRSC14958 | 7 | – | inactive
Nct | DRSC16172 | 9 | – | inactive
CG16978 | DRSC02553 | 10 | – | inactive
Ir52a | DRSC06262 | 3 | – | inactive
nsr | DRSC04427 | 7 | – | inactive
nsr | DRSC22806 | 12 | – | inactive
Nadk1a | DRSC05431 | 17 | – | inactive
Nadk1a | DRSC06963 | 5 | – | inactive
Ndg | DRSC06223 | 8 | – | inactive
